Measurements reported in patent US8461328B2, “Tricyclic heterocyclic compounds, compositions and methods of use thereof” (Genentech, Inc., priority 2010, dated 2013).
Some entries share one result that the patent states for a list of compounds.

Amino acid sequences for entries named in this document (tags omitted). Residues count along the entry.
UniProt P23458, 852-1154: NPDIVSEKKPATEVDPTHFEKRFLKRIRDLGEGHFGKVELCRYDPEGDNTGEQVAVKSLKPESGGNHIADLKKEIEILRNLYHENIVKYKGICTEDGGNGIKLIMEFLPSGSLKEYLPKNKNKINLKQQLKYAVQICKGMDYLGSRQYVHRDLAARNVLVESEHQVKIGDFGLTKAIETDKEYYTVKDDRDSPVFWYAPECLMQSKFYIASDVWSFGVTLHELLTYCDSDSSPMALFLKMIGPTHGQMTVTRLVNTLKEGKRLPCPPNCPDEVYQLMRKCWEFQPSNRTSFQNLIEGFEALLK

Target: T1, human JAK1 kinase domain (Homo sapiens, UniProt P23458)
T1 construct: made in house; host or cells: SF9 insect cells (baculovirus)
Test: JAK1 inhibition assay (Example B), Caliper LabChip peptide phosphorylation
Type: biochemical
Conditions: 1.5 nM JAK1, 25 μM ATP, Morrison tight binding model; read-out: Ki in a JAK1 kinase activity assay (Example B)

SMILES	Ki [nM]
CC(=O)N(C)CCc1nc2cnc3[nH]ccc3c2n1C1CCCCC1 [Example 802, N-[2-(1-Cyclohexyl-1,6-dihydro-1,3,5,6-tetraaza-as-indacen-2-yl)-ethyl]-N-methyl-acetamide]	< 500
CN(C)C(=O)CCc1nc2cnc3[nH]ccc3c2n1C1CCCCC1 [Example 803, 3-(1-Cyclohexyl-1,6-dihydro-1,3,5,6-tetraaza-as-indacen-2-yl)-N,N-dimethyl-propionamide]	< 500
CCN1CCC(n2c(CCNC(C)=O)nc3cnc4[nH]ccc4c32)C(F)(F)C1 (stereo not shown) [Example 807, N-{2-[1-(1-Ethyl-3,3-difluoro-piperidin-4-yl)-1,6-dihydro-1,3,5,6-tetraaza-as-indacen-2-yl]-ethyl}-acetamide]	< 500
CCN1CC[C@@H](n2c(CCNS(C)(=O)=O)nc3cnc4[nH]ccc4c32)[C@@H](F)C1 [Example 808, N-{2-[1-((3S,4R)-1-Ethyl-3-fluoro-piperidin-4-yl)-1,6-dihydro-1,3,5,6-tetraaza-as-indacen-2-yl]-ethyl}-methanesulfonamide]	< 500
CCN1CC[C@@H](n2c(CCNS(=O)(=O)C3CC3)nc3cnc4[nH]ccc4c32)[C@@H](F)C1 [Example 809, Cyclopropanesulfonic acid {2-[1-((3S,4R)-1-ethyl-3-fluoro-piperidin-4-yl)-1,6-dihydro-1,3,5,6-tetraaza-as-indacen-2-yl]-ethyl}-amide]	< 500
CCN1CC[C@@H](n2c(CCNS(=O)(=O)C(C)C)nc3cnc4[nH]ccc4c32)[C@@H](F)C1 [Example 810, Propane-2-sulfonic acid {2-[1-((3S,4R)-1-ethyl-3-fluoro-piperidin-4-yl)-1,6-dihydro-1,3,5,6-tetraaza-as-indacen-2-yl]-ethyl}-amide]	< 500
CCN1CC[C@@H](n2c(CCNC(C)=O)nc3cnc4[nH]ccc4c32)[C@@H](F)C1 [Example 811, N-{2-[1-((3S,4R)-1-Ethyl-3-fluoro-piperidin-4-yl)-1,6-dihydro-1,3,5,6-tetraaza-as-indacen-2-yl]-ethyl}-acetamide]	< 500
N#CCCN1CCC(n2c(CC3CCOCC3)nc3cnc4[nH]ccc4c32)CC1 [Example 812, 3-{4-[2-(Tetrahydro-pyran-4-ylmethyl)-6H-1,3,5,6-tetraaza-as-indacen-1-yl]-piperidin-1-yl}-propionitrile]	< 500
Cn1ccc(CCc2nc3cnc4[nH]ccc4c3n2C2CCN(CCC#N)CC2)n1 [Example 814, 3-(4-{2-[2-(1-Methyl-1H-pyrazol-3-yl)-ethyl]-6H-1,3,5,6-tetraaza-as-indacen-1-yl}-piperidin-1-yl)-propionitrile]	< 500
CCc1nccn1CCc1nc2cnc3[nH]ccc3c2n1C1CCN(CCC#N)CC1 [Example 815, 3-(4-{2-[2-(2-Ethyl-imidazol-1-yl)-ethyl]-6H-1,3,5,6-tetraaza-as-indacen-1-yl}-piperidin-1-yl)-propionitrile]	< 500
CC(C)c1nccn1CCc1nc2cnc3[nH]ccc3c2n1C1CCN(CCC#N)CC1 [Example 816, 3-(4-{2-[2-(2-Isopropyl-imidazol-1-yl)-ethyl]-6H-1,3,5,6-tetraaza-as-indacen-1-yl}-piperidin-1-yl)-propionitrile]	< 500
CC(F)(F)CCc1nc2cnc3[nH]ccc3c2n1C1CCN(CCC#N)CC1 [Example 817, 3-{4-[2-(3,3-Difluoro-butyl)-6H-1,3,5,6-tetraaza-as-indacen-1-yl]-piperidin-1-yl}-propionitrile]	< 500
C[C@@H](O)c1nc2cnc3[nH]ccc3c2n1C1CCN(Cc2cnn(C)c2)CC1 [Example 818, (R)-1-{1-[1-(1-Methyl-1H-pyrazol-4-ylmethyl)-piperidin-4-yl]-1,6-dihydro-1,3,5,6-tetraaza-as-indacen-2-yl}-ethanol]	< 500
C[C@@H](O)c1nc2cnc3[nH]ccc3c2n1C1CCN(Cc2ccnn2C)CC1 [Example 819, (R)-1-{1-[1-(2-Methyl-2H-pyrazol-3-ylmethyl)-piperidin-4-yl]-1,6-dihydro-1,3,5,6-tetraaza-as-indacen-2-yl}-ethanol]	< 500
CCn1nccc1CN1CCC(n2c([C@@H](C)O)nc3cnc4[nH]ccc4c32)CC1 [Example 820, (R)-1-{1-[1-(2-Ethyl-2H-pyrazol-3-ylmethyl)-piperidin-4-yl]-1,6-dihydro-1,3,5,6-tetraaza-as-indacen-2-yl}-ethanol]	< 500
Cc1cc(CN2CCC(n3c([C@@H](C)O)nc4cnc5[nH]ccc5c43)CC2)n(C)n1 [Example 821, (R)-1-{1-[1-(2,5-Dimethyl-2H-pyrazol-3-ylmethyl)-piperidin-4-yl]-1,6-dihydro-1,3,5,6-tetraaza-as-indacen-2-yl}-ethanol]	< 500
CCn1cc(CN2CCC(n3c([C@@H](C)O)nc4cnc5[nH]ccc5c43)CC2)cn1 [Example 822, (R)-1-{1-[1-(1-Ethyl-1H-pyrazol-4-ylmethyl)-piperidin-4-yl]-1,6-dihydro-1,3,5,6-tetraaza-as-indacen-2-yl}-ethanol]	< 500
C[C@@H](O)c1nc2cnc3[nH]ccc3c2n1C1CCN(Cc2cncn2C)CC1 [Example 823, (R)-1-{1-[1-(3-Methyl-3H-imidazol-4-ylmethyl)-piperidin-4-yl]-1,6-dihydro-1,3,5,6-tetraaza-as-indacen-2-yl}-ethanol]	< 500
CC(C)n1cc(CN2CCC(n3c([C@@H](C)O)nc4cnc5[nH]ccc5c43)CC2)cn1 [Example 824, (R)-1-{1-[1-(1-Isopropyl-1H-pyrazol-4-ylmethyl)-piperidin-4-yl]-1,6-dihydro-1,3,5,6-tetraaza-as-indacen-2-yl}-ethanol]	< 500
C[C@@H](O)c1nc2cnc3[nH]ccc3c2n1C1CCN(Cc2ccn(C)n2)CC1 [Example 825, (R)-1-{1-[1-(1-Methyl-1H-pyrazol-3-ylmethyl)-piperidin-4-yl]-1,6-dihydro-1,3,5,6-tetraaza-as-indacen-2-yl}-ethanol]	< 500
C[C@@H](O)c1nc2cnc3[nH]ccc3c2n1C1CCN(Cc2nccn2C)CC1 [Example 826, (R)-1-{1-[1-(1-Methyl-1H-imidazol-2-ylmethyl)-piperidin-4-yl]-1,6-dihydro-1,3,5,6-tetraaza-as-indacen-2-yl}-ethanol]	< 500
Cc1nc(CN2CCC(n3c([C@@H](C)O)nc4cnc5[nH]ccc5c43)CC2)n(C)c1C [Example 827, (R)-1-{1-[1-(1,4,5-Trimethyl-1H-imidazol-2-ylmethyl)-piperidin-4-yl]-1,6-dihydro-1,3,5,6-tetraaza-as-indacen-2-yl}-ethanol]	< 500
Cc1nn(C)cc1CN1CCC(n2c([C@@H](C)O)nc3cnc4[nH]ccc4c32)CC1 [Example 828, (R)-1-{1-[1-(1,3-Dimethyl-1H-pyrazol-4-ylmethyl)-piperidin-4-yl]-1,6-dihydro-1,3,5,6-tetraaza-as-indacen-2-yl}-ethanol]	< 500

The next lines start with the values.

Ki [nM]	SMILES
< 500	C[C@@H](O)c1nc2cnc3[nH]ccc3c2n1[C@@H]1CCCN(C(=O)CC2CC2)C1 [Example 791, 2-Cyclopropyl-1-{(R)-3-[2-((R)-1-hydroxy-ethyl)-6H-1,3,5,6-tetraaza-as-indacen-1-yl]-piperidin-1-yl}-ethanone]
< 500	C[C@@H](O)c1nc2cnc3[nH]ccc3c2n1[C@@H]1CCCN(C(=O)C2CCC2)C1 [Example 792, Cyclobutyl-{(R)-3-[2-((R)-1-hydroxy-ethyl)-6H-1,3,5,6-tetraaza-as-indacen-1-yl]-piperidin-1-yl}-methanone]
< 500	CC(C)CC(=O)N1CCC[C@@H](n2c([C@@H](C)O)nc3cnc4[nH]ccc4c32)C1 [Example 793, 1-{(R)-3-[2-((R)-1-Hydroxy-ethyl)-6H-1,3,5,6-tetraaza-as-indacen-1-yl]-piperidin-1-yl}-3-methyl-butan-1-one]
< 500	C[C@@H](O)c1nc2cnc3[nH]ccc3c2n1[C@@H]1CCCN(C(=O)C2CC2)C1 [Example 794, Cyclopropyl-{(R)-3-[2-((R)-1-hydroxy-ethyl)-6H-1,3,5,6-tetraaza-as-indacen-1-yl]-piperidin-1-yl}-methanone]
< 500	CCC(=O)N1CCC[C@@H](n2c([C@@H](C)O)nc3cnc4[nH]ccc4c32)C1 [Example 795, 1-{(R)-3-[2-((R)-1-Hydroxy-ethyl)-6H-1,3,5,6-tetraaza-as-indacen-1-yl]-piperidin-1-yl}-propan-1-one]
< 500	CC(O)c1nc2cnc3[nH]ccc3c2n1C1CCCN(C(=O)C2CC2C)C1 (stereo not shown) [Example 796, {3-[2-(1-Hydroxy-ethyl)-6H-1,3,5,6-tetraaza-as-indacen-1-yl]-piperidin-1-yl}-(2-methyl-cyclopropyl)-methanone]
< 500	C[C@@H](O)c1nc2cnc3[nH]ccc3c2n1[C@@H]1CCCN(C(=O)CCn2ccnc2)C1 [Example 797, 1-{(R)-3-[2-((R)-1-Hydroxy-ethyl)-6H-1,3,5,6-tetraaza-as-indacen-1-yl]-piperidin-1-yl}-3-imidazol-1-yl-propan-1-one]
< 500	C[C@@H](O)c1nc2cnc3[nH]ccc3c2n1[C@@H]1CCCN(C(=O)Cn2ccnc2)C1 [Example 798, 1-{(R)-3-[2-((R)-1-Hydroxy-ethyl)-6H-1,3,5,6-tetraaza-as-indacen-1-yl]-piperidin-1-yl}-2-imidazol-1-yl-ethanone]
< 500	COC1CCC(C(=O)N2CCCC(n3c(C(C)O)nc4cnc5[nH]ccc5c43)C2)CC1 (stereo not shown) [Example 799, {3-[2-(1-Hydroxy-ethyl)-6H-1,3,5,6-tetraaza-as-indacen-1-yl]-piperidin-1-yl}-(4-methoxy-cyclohexyl)-methanone]
< 500	CCOC(=O)N1CCC[C@@H](n2c([C@@H](C)O)nc3cnc4[nH]ccc4c32)C1 [Example 800, (R)-3-[2-((R)-1-Hydroxy-ethyl)-6H-1,3,5,6-tetraaza-as-indacen-1-yl]-piperidine-1-carboxylic acid ethyl ester]
< 500	O=C1CCCN1CCc1nc2cnc3[nH]ccc3c2n1C1CCCCC1 [Example 801, 1-[2-(1-Cyclohexyl-1,6-dihydro-1,3,5,6-tetraaza-as-indacen-2-yl)-ethyl]-pyrrolidin-2-one]
